Source: the supplement of paper PMC10849652
The other results are listed elsewhere or left out.

By UniProt entry, the sequences of proteins in these tests, tags left out. Where a name states a change or a piece, a line headed by the entry shows the natural chain unless it says otherwise.
UniProt Q96G97: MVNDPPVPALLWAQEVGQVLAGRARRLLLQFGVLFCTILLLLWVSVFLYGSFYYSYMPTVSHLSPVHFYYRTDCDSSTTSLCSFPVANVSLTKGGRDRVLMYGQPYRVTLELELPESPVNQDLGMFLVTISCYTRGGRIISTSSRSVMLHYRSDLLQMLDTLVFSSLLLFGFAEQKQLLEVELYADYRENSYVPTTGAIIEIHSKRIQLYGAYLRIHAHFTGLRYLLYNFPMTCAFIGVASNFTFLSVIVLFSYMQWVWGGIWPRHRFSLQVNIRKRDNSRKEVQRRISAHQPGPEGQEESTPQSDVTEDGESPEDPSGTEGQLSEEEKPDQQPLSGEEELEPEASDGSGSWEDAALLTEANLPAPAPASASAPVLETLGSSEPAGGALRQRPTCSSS
UniProt Q8IXM2, whole entry, looked up: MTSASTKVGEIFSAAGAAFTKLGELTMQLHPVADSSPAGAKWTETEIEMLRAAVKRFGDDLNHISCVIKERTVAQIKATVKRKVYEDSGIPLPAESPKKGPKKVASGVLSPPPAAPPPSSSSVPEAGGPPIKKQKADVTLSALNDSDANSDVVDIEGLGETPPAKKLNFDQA
UniProt P43251: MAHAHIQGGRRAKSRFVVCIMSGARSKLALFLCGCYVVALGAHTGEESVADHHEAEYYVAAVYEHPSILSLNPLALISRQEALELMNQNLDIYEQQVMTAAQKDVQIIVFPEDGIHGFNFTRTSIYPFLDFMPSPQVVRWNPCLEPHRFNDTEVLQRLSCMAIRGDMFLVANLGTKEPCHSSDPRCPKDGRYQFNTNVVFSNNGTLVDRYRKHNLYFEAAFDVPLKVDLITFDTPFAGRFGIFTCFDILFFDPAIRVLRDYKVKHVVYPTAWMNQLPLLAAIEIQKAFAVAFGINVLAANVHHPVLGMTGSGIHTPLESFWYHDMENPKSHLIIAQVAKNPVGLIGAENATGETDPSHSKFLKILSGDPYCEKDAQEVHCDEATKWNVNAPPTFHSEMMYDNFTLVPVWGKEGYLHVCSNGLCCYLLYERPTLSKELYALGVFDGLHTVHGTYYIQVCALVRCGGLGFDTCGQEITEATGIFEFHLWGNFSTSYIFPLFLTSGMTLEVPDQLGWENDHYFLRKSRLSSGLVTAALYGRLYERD
UniProt Q9NZM4: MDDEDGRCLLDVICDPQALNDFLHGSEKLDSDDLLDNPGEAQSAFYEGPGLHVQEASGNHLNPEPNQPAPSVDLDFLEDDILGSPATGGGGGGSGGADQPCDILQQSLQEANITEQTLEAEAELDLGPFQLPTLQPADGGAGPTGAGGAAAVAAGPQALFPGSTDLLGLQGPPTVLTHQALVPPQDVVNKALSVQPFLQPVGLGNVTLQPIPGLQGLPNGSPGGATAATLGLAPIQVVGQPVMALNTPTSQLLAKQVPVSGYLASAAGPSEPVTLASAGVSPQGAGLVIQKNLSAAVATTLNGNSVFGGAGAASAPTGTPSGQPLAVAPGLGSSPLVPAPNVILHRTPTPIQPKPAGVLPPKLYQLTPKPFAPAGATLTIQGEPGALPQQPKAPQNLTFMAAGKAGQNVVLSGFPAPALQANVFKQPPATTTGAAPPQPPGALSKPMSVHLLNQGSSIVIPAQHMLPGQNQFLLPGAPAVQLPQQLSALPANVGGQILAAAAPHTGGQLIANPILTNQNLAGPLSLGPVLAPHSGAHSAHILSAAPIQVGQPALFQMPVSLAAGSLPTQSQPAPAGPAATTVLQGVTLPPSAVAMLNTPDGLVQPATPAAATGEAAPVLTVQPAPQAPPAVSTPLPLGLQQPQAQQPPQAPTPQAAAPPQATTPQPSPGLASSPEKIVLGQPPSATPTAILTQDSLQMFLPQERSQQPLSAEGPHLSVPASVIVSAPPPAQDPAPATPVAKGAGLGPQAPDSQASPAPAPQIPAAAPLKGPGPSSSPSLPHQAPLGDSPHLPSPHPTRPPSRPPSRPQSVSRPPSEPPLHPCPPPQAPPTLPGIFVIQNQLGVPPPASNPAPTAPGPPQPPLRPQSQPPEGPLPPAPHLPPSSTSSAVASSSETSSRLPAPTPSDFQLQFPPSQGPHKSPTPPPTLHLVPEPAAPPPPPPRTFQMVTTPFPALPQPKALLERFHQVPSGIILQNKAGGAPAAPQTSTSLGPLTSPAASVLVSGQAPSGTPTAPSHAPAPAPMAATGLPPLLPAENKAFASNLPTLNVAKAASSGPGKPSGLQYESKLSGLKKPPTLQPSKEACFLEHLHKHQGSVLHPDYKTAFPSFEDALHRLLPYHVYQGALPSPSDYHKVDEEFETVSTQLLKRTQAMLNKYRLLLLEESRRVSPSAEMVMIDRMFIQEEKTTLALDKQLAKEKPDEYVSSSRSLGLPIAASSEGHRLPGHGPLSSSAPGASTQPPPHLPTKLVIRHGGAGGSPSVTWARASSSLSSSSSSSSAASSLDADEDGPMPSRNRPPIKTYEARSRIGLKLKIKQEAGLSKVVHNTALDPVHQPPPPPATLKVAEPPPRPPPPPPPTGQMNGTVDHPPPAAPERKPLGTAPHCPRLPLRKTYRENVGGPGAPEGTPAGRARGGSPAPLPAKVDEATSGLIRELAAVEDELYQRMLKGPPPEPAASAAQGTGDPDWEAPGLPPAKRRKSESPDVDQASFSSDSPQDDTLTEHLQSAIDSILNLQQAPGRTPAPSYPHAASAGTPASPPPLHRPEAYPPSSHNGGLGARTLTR
UniProt Q9NQY0: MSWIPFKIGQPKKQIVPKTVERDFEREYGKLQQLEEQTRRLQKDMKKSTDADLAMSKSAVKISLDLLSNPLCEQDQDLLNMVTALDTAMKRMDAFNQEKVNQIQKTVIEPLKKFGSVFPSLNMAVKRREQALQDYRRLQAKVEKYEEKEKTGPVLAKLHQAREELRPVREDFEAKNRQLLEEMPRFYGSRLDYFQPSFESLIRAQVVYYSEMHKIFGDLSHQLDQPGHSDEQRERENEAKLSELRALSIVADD
UniProt O00499: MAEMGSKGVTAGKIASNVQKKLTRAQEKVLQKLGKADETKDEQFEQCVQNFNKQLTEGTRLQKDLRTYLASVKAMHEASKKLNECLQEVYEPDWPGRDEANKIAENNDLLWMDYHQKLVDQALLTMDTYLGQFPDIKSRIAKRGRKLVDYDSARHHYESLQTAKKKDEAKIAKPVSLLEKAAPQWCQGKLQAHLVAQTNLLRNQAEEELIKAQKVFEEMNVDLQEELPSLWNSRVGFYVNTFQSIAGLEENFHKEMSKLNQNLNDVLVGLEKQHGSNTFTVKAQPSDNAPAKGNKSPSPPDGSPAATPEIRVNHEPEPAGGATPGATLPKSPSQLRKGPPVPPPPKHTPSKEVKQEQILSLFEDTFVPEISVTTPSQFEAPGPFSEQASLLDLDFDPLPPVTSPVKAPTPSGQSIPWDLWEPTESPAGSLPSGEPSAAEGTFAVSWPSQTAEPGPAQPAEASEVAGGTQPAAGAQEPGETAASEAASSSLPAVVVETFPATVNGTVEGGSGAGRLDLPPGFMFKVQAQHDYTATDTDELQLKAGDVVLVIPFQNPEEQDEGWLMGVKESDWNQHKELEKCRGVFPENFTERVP
UniProt Q12983, whole entry, looked up: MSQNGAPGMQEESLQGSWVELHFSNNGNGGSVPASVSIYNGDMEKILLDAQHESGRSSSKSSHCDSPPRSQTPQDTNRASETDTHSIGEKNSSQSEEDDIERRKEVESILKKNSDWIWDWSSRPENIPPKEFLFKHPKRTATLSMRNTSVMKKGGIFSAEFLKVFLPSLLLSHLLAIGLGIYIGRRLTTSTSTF
UniProt Q96RK4: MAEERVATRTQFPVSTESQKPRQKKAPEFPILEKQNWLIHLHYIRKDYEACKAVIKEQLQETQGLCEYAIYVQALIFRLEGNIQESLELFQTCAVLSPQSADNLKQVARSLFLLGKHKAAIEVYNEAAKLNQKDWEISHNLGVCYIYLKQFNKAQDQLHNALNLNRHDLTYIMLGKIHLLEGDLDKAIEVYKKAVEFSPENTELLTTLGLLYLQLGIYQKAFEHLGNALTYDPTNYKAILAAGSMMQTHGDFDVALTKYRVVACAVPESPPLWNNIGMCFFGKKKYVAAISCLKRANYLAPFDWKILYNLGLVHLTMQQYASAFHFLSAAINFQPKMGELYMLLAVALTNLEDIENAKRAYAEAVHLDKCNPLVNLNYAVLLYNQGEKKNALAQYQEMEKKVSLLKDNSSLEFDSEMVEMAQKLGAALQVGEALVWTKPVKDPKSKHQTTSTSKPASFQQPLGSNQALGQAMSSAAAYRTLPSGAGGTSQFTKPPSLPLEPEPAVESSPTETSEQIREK
UniProt O43505: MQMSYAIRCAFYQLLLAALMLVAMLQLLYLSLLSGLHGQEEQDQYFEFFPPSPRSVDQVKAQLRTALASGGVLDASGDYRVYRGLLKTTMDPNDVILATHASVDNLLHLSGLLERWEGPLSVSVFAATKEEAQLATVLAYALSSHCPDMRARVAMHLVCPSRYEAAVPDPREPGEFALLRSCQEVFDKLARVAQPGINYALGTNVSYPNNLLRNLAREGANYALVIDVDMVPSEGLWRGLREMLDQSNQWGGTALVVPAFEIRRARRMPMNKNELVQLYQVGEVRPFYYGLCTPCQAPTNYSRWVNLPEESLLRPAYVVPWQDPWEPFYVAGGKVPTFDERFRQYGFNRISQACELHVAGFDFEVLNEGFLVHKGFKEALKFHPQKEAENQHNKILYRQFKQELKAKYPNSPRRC
UniProt O43521, whole entry, looked up: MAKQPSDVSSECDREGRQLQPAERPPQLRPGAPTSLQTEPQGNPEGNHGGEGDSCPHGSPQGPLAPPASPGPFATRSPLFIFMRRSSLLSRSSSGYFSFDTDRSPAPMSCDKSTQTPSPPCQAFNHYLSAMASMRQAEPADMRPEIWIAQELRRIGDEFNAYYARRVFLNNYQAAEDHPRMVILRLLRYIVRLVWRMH
UniProt Q8WY36: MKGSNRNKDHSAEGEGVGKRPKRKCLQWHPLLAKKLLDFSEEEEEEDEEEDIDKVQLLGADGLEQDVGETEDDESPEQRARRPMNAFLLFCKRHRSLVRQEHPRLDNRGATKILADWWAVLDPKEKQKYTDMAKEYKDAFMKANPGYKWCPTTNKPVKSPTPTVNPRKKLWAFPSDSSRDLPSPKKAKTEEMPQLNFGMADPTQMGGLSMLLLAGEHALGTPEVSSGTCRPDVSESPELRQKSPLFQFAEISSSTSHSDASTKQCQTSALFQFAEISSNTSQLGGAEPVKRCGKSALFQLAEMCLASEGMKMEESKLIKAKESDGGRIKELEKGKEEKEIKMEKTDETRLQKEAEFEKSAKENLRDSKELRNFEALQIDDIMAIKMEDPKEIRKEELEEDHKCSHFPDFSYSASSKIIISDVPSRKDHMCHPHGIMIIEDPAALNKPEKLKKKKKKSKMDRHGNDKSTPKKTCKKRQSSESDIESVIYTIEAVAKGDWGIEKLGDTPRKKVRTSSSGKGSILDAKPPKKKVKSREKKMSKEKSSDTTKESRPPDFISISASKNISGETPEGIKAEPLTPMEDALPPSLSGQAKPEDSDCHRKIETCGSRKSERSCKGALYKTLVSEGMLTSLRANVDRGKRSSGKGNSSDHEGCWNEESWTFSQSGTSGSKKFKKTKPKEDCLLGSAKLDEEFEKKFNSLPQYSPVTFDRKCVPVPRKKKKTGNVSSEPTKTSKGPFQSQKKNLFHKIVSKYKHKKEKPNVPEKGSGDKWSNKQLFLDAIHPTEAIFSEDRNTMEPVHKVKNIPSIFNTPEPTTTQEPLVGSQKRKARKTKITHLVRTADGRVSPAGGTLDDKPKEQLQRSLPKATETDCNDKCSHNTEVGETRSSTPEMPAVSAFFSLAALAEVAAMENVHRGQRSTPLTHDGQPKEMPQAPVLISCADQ
UniProt Q9NWD9: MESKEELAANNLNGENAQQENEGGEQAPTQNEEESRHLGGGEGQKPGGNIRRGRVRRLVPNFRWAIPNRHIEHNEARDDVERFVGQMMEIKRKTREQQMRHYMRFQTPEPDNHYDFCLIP
UniProt O60513: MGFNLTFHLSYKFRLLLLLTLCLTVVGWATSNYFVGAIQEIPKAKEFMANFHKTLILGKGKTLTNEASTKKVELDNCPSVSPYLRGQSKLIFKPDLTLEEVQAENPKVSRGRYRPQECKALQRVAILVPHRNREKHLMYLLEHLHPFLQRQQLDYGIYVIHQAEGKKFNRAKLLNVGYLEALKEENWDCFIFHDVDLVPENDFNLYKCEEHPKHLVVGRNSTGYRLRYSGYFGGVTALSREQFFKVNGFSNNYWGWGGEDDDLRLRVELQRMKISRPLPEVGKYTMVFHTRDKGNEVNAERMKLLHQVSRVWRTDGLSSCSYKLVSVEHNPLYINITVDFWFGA

Assays:
Test in all cases: log2 fold change, soluble protein after heating vs DMSO (PISA); higher = thermal stabilisation; K562 lysate, 10 uM; active = over 0.2 and 3.5 SD of the protein, either way, in both replicates (recomputed)
[1] = compound: CN1CC[C@H](c2c(O)cc(O)c3c(=O)cc(-c4ccccc4Cl)oc23)[C@H](O)C1 [alvocidib]
In short: (§1)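 Dounce homogenisation of K562 pellets in PBS pH 7.4 with 1 mM MgCl2 produced a crude extract, used at 1 mg/mL protein. Exposure to 10 μM compound lasted 30 min, and aliquots were then heated for 3 min across 48°C-58°C, pooled and brought to 0.5% NP-40 at 4°C. The supernatant after 21,000xg for 90 min was quantified by TMTpro 16plex LC-MS/MS with channel sums equalised. Duplicate values are given as log-two fold change in thermal stability relative to solvent controls.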

[2] = compound: CN1CCc2c(c3ccccc3n2Cc2ccc(C(=O)NO)cc2)C1 [Tubastatin A]
In short: as §1

[3] = compound: CNC(=O)C1=CC=CC=C1NC2=NC(=NC=C2Cl)NC3=C(C=C(C=C3)N4CCOCC4)OC
In short: as §1

[4] = compound: COC(=O)N[C@@H](C)CNc1nccc(-c2cn(C(C)C)nc2-c2cc(Cl)cc(NS(C)(=O)=O)c2F)n1 [encorafenib]
In short: as §1

[5] = compound: COC(=O)[C@H](CCSC)NC(=O)C1=C(C=C(C=C1)NC[C@H](CS)N)C2=CC=CC=C2
In short: as §1

[6] = compound: COc1cc(Nc2ncc3c(n2)-c2ccc(Cl)cc2C(c2c(F)cccc2OC)=NC3)ccc1C(=O)O [alisertib]
In short: as §1

[7] = compound: COc1cc2nc(-c3cc(F)ccc3O)nc(N[C@@H]3CNC[C@H]3C(C)(C)O)c2cc1OC
In short: as §1

[8] = compound: COc1cc2ncnc(Nc3ccc(F)c(Cl)c3)c2cc1OCCCN1CCOCC1 [gefitinib]
In short: as §1

[9] = compound: CNc1nc(-c2ccc3c(N)n[nH]c3c2)cc(N2C[C@@H](C(=O)NC3CCCCC3)CC[C@H]2C)n1
In short: as §1

[10] = compound: CNC(=O)c1ccc(Nc2ncc(C(F)(F)F)c(NCc3nccnc3N(C)S(C)(=O)=O)n2)cc1 [defactinib]
In short: as §1

Measured: log2 fold change

BAZ2A (UniProt Q9UIF9)
inactive: [1] -0.035 | [2] -0.071 | [3] 0.102 | [4] 0.082 | [5] 0.224 | [6] -0.131 | [7] 0.202 | [8] 0.072

BSCL2 isoform 4 (UniProt Q96G97)
inactive: [1] -0.015 | [2] -0.1 | [3] -0.093 | [6] -0.087 | [7] -0.1 | [8] 0.075

BCL7C (UniProt Q8WUZ0)
inactive: [1] -0.029 | [2] 0.112 | [3] 0.103 | [9] 0.064 | [4] 0.132 | [5] 0.128 | [7] 0.087

BTBD1 (UniProt Q9H0C5)
inactive: [1] -0.104 | [3] -0.024 | [10] 0.073 | [4] 0.107 | [5] -0.011 | [6] -0.014 | [8] 0.081

BAP18 isoform 3 (UniProt Q8IXM2)
inactive: [1] 0.061 | [3] 0.113 | [10] -0.103 | [4] 0.043 | [5] 0.096 | [6] 0.226 | [7] -0.095 | [8] 0.051

B4GALT7 (UniProt Q9UBV7)
inactive: [1] 0.08 | [3] -0.034 | [10] -0.065 | [4] -0.004 | [5] 0.093

BRD9 (UniProt Q9H8M2)
inactive: [1] 0.207 | [2] -0.03 | [3] 0.185 | [4] 0.199 | [5] 0.058 | [6] 0.113 | [8] -0.028

Quoted at random: 2 entries already listed.
BCL7C (UniProt Q8WUZ0)
inactive: [1] -0.029 | [2] 0.112 | [3] 0.103 | [9] 0.064 | [4] 0.132 | [5] 0.128 | [7] 0.087

BTBD1 (UniProt Q9H0C5)
inactive: [1] -0.104 | [3] -0.024 | [10] 0.073 | [4] 0.107 | [5] -0.011 | [6] -0.014 | [8] 0.081

More results.

BTD isoform 3 (UniProt P43251)
inactive: [1] -0.079 | [2] -0.004 | [3] 0 | [10] 0.092 | [9] 0.061 | [4] -0.08 | [5] 0.019 | [7] 0.007

BICRA (UniProt Q9NZM4)
inactive: [1] -0.113 | [2] 0.335 | [3] 0.101 | [7] 0.132
active: [9] 0.884

BIN3 (UniProt Q9NQY0)
inactive: [1] -0.018 | [2] 0.081 | [3] 0.103 | [9] -0.189

BIN1 (UniProt O00499)
inactive: [1] -0.084 | [3] -0.022 | [10] 0 | [4] 0.156 | [5] -0.003 | [6] -0.028 | [7] -0.117 | [8] -0.128

BRD7 isoform 2 (UniProt Q9NPI1)
inactive: [1] -0.014 | [2] 0.002 | [3] 0.075 | [9] 0.025 | [6] -0.065 | [7] 0 | [8] -0.108

BRF1 (UniProt Q92994)
inactive: [1] 0.047 | [2] -0.274 | [3] 0.081 | [10] 0.026 | [9] -0.001 | [4] 0.04 | [5] 0.136 | [6] 0.04 | [8] 0.278

BOD1 (UniProt Q96IK1)
inactive: [1] 0.035 | [2] 0.056 | [9] -0.221 | [7] 0.084

BNIP3 (UniProt Q12983)
inactive: [1] -0.065 | [2] -0.058 | [3] 0.076 | [9] 0.081 | [4] 0.015 | [5] 0.018 | [6] -0.043 | [7] -0.128 | [8] 0.021

BCAS3 isoform 8 (UniProt Q9H6U6)
inactive: [1] -0.13 | [2] 0.021 | [3] -0.05 | [10] -0.006 | [9] 0.113 | [4] -0.108 | [5] -0.066 | [7] 0.017

BAK1 (UniProt Q16611)
inactive: [1] 0.115 | [2] 0.163 | [3] -0.172 | [10] 0.076 | [9] 0.024 | [4] 0.025 | [5] -0.113 | [7] -0.137

BBS4 isoform 2 (UniProt Q96RK4)
inactive: [1] -0.022 | [9] 0.037 | [6] 0.139 | [8] 0.192

BTG3 isoform 2 (UniProt Q14201)
inactive: [3] -0.013 | [4] -0.288 | [5] 0.135

BLVRA (UniProt C9J1E1)
inactive: [6] -0.052 | [7] 0.022 | [8] -0.3

B4GAT1 (UniProt O43505)
inactive: [2] -0.234 | [3] -0.028 | [9] 0.04 | [6] 0.073 | [8] 0.28

BRMS1L (UniProt Q5PSV4)
inactive: [10] 0.161 | [4] -0.044 | [5] 0.078 | [7] -0.103

BICRAL (UniProt Q6AI39)
inactive: [2] 0.198 | [4] -0.004 | [5] -0.142

BCL2L11 (UniProt O43521)
inactive: [1] -0.018 | [10] -0.028

BNIP2 (UniProt H7C096)
inactive: [1] -0.061 | [4] 0.11 | [5] 0.023 | [7] -0.028

BTBD10 isoform 2 (UniProt Q9BSF8)
inactive: [9] 0.074 | [6] 0.063 | [8] -0.058

BBX (UniProt Q8WY36)
inactive: [3] 0.178 | [9] 0.168 | [4] 0.112 | [5] -0.573 | [6] -0.158 | [8] 0.147

BEX4 (UniProt Q9NWD9)
inactive: [2] -0.038 | [3] 0.03 | [9] -0.079 | [6] -0.138 | [8] 0.032

BRWD1 (UniProt Q9NSI6)
inactive: [2] 0.041 | [9] 0.075

BANP isoform 7 (UniProt Q8N9N5)
inactive: [3] 0.2 | [4] 0.198 | [5] -0.069

BDP1 (UniProt A6H8Y1)
inactive: [2] 0.104 | [4] 0.013 | [5] 0.033

BEGAIN, A0A1B0GVM0
inactive: [2] 0.038 | [3] -0.158 | [4] 0.004 | [5] 0.037 | [6] -0.064 | [8] -0.023

BRMS1 (UniProt Q9HCU9)
inactive: [2] -0.091 | [3] 0.009 | [10] -0.08 | [9] -0.029 | [4] -0.051 | [5] -0.085 | [6] 0.077 | [7] -0.001 | [8] -0.01

B4GALT4 (UniProt O60513)
inactive: [1] 0.055 | [3] 0.312 | [9] -0.094

BPIFB1 (UniProt Q8TDL5)
inactive: [1] -0.301 | [4] 0.129 | [5] 0.378 | [6] 0.012 | [8] -0.008

BCAP31, A0A2R8Y5M6
inactive: [1] -0.061 | [10] -0.204 | [4] -0.005 | [5] 0.057

BTBD9 (UniProt Q96Q07)
inactive: [3] -0.104 | [7] 0.144
